Molecules are shown by their SMILES.

As for `NCC(=O)O` [glycine], the “amounts of food or water consumed” value (adult female Fisher rats, between groups, whole experiment) is reported as “No significant differences”. Moreover, the “food consumption (cause of weight loss)” value (adult male Fisher rats, 5% and 20% glycine diets) was “not a result of caloric restriction due to reduced food intake”.

The record behind these values is patent US10729157B2, “Methods for regulating weight and size of animals” (Oragenics, Inc., priority 2004, dated 2020).
